According to PubChem BioAssay AID540276 (National Center for Advancing Translational Sciences (NCATS), 2011):
The campaign covered roughly 300,000 compounds. About 5,400 (1.8%) were called active. The shares of active, inactive and inconclusive entries below differ from those in the screen. The call rests on the fitted dose curve; tested in HEK293 cells. Where the call is inconclusive, the potency comes from a doubtful curve fit.

Test: qHTS for inhibitors of binding or entry into cells for Marburg Virus
Conditions: Marburg virus pseudotyped entry inhibition, cell reporter; activity change, negative = inhibition: at 37.8 µM (top of the series) unless noted
On the % scale 0 is the no-effect control and ±100 the full control effect; potency means the concentration at half of the fitted maximal effect.

Compound | Potency | activity change, negative = inhibition
Cc1cccc(N2CCN(C(=O)CCNS(=O)(=O)c3ccc4c(c3)oc(=O)n4C)CC2)c1C | inconclusive: 14.1 µM [inhibitor, single point] | –
Cc1cccn2c(=O)c3cc(C(=O)NCc4ccco4)c(=N)n(CCc4ccccc4)c3nc12 | inconclusive: 2.51 µM [inhibitor, full curve, poor fit] | –
CN1CCN(Cc2cccc(Oc3ccccc3)c2)CC1 | inconclusive: 18.3 µM [inhibitor, partial curve, poor fit] | –
C=CCSC1=C(C#N)C(c2ccccc2OCC)C(C#N)C(=O)N1 (stereo not given) | inconclusive: 2.59 µM [inhibitor, partial curve, poor fit] | –
CC1(C)CC(NC(=O)C2=C(C(=O)NC3CC(C)(C)NC(C)(C)C3)CCCC2)CC(C)(C)N1 | – | inactive: -17%
O=S(=O)(c1ccc(-c2ccon2)s1)N1CCN(c2ccccn2)CC1 | inconclusive: 10 µM [inhibitor, partial curve, poor fit] | –
COc1ccc(-c2noc(CCCc3ccccc3)n2)cc1OC | – | inactive: -1.51%
CCN1CCN(CCC(=O)Nc2ccccc2)CC1 | inconclusive: 35.5 µM [inhibitor, single point] | –
CC(C)(C)n1nnnc1C(c1cccnc1)N1CCN(c2ccccc2F)CC1 (stereo not given) | – | inactive: 12.2%
CC1CC1C(=O)Nc1nc2ccc(S(C)(=O)=O)cc2s1 (stereo not given) | inconclusive: 35.5 µM [inhibitor, single point] | –
CCN(CC)S(=O)(=O)c1ccc(C(=O)NCc2ccc3[nH]c4c(c3c2)CCCC4)cc1 | – | inactive: -10.9%
COc1ccc(CNC(=O)c2cccc(N3CCCS3(=O)=O)c2)cc1OC | inconclusive: 11.2 µM [inhibitor, partial curve, poor fit] | –
COc1cccc(N2C(C(C)=O)=NN(c3ccccc3)C2c2ccc(N3CCOCC3)cc2)c1 (stereo not given) | inconclusive: 20.6 µM [inhibitor, single point] | –
CCn1c(SCC(=O)N/N=C/C=C\c2ccco2)nc2ccccc21 | inconclusive: 1.41 µM [activator, partial curve, poor fit] | –
Cn1nccc1C(=O)OCC(=O)Nc1cccc(Cl)c1 | inconclusive: 0.447 µM [activator, partial curve, poor fit] | –
Cc1cccn2c(=O)c3cc(C(=O)NC4CCCC4)c(=N)n(CCc4ccccc4)c3nc12 | inconclusive: 31.6 µM [inhibitor, single point] | –
COc1ccc(N2C(=O)Cc3ccccc3C2=O)cc1 | inconclusive: 6.31 µM [inhibitor, single point] | –
CC1CCN(CCCNC(=O)CCCNC(=O)Cn2cnc3sc4c(c3c2=O)CCCC4)CC1 | inconclusive: 6.51 µM [activator, single point] | –
O=C(CN1CCC(NC(=O)c2cccc(F)c2)CC1)Nc1ccc(Br)cc1 | – | inactive: 8.55%
Cc1cc(CNC(=O)C2CCC(=O)N(Cc3ccccc3F)C2)on1 (stereo not given) | – | inactive: 26.1%
CCc1cccc(C)c1NC(=S)N(CCCN1CCN(C)CC1)Cc1cccs1 | active: 10 µM | –
CC1CCCCC1NC(=O)COC(=O)c1c2c(nc3ccccc13)/C(=C\c1ccco1)CC2 (stereo not given) | inconclusive: 35.5 µM [inhibitor, single point] | –
Cc1cc(Cl)c2oc(C(=O)NCCC3CCCCO3)c(C)c2c1 (stereo not given) | inconclusive: 35.5 µM [inhibitor, single point] | –

Compound | Potency | activity change, negative = inhibition
Cc1c(C(=O)N(Cc2cccc(F)c2)C2CCS(=O)(=O)C2)oc2cc(Br)ccc12 (stereo not given) | inconclusive: 4.47 µM [inhibitor, full curve, poor fit] | –
CCCCn1c(N)c(N(CCOC)C(=O)c2ccc(-c3ccc(Cl)cc3)o2)c(=O)[nH]c1=O | inconclusive: 1.26 µM [activator, partial curve] | –
c1ccc(-c2cc(N3CCCCCC3)n[nH]2)cc1 | – | inactive: -10.9%
CCC(CC)C(=O)Nc1c2cnn(-c3ccccc3)c2nc(=O)n1-c1ccccc1 | inconclusive: 1.26 µM [activator, single point] | –
CNc1nc(CCN2C(=O)c3ccccc3C2=O)cs1 | inconclusive: 5.8 µM [activator, full curve, poor fit] | –
Cn1nc(C(=O)NCc2ccc(F)cc2)c2ccccc2c1=O | – | inactive: -21.4%
Cn1c(=O)oc2cc(S(=O)(=O)NCCC(=O)NCc3ccc(F)cc3)ccc21 | inactive | –
CCc1ccc(S(=O)(=O)Nc2ccc(-c3ccc4nncn4n3)cc2)s1 | – | inactive: -1.97%
Nc1c(C(=O)N2CCCC2)sc2nc(-c3ccccc3)ccc12 | inconclusive: 3.98 µM [activator, full curve] | –
COc1ccc(F)c(-c2nc(CN3CCN(C(=O)c4ccco4)CC3)c(C)o2)c1 | – | inactive: -7.63%
Cc1c(/C=N/NC(=O)c2cccs2)c2ccccc2n1Cc1ccccc1Cl | active: 2.91 µM | –
c1ccc(-c2nc3nonc3nc2-c2ccccc2)cc1 | inconclusive: 20 µM [inhibitor, single point] | –
O=C(CCC(=O)N1CCSc2ccccc21)NCc1ccccc1Cl | – | inactive: -16.2% [at 46.1 µM]
O=C(c1ccncc1)N(c1ccc2oc3c(c2c1)CCCC3)S(=O)(=O)c1ccc(F)cc1 | inconclusive: 35.5 µM [inhibitor, single point] | –
O=C(COc1ccc(F)cc1)NN1C(=O)CSC1=S | – | inactive: 25.1% [at 46.1 µM]
O=C(NCCN1CCOCC1)c1cc2ccccc2[nH]1 | inconclusive: 35.5 µM [activator, single point] | –
COc1ccc(NC(=O)CN(C)CC(=O)NCCc2ccc(F)cc2)cc1 | – | inactive: 2.98%
CN(Cc1ccccc1)C(=O)COC(=O)c1cc(Cl)nc(Cl)c1 | – | inactive: 0.493% [at 46.1 µM]
COc1ccc(-c2nnc(SCc3cccc(C#N)c3)o2)cc1 | – | inactive: -25.5%
O=C(Nc1ccc(Br)cc1)c1cc(-c2ccncc2)nc2ccccc12 | inconclusive: 3.16 µM [inhibitor, full curve, poor fit] | –
CN(c1cccc(NC(=O)CN(c2ccc(Cl)c(Cl)c2)S(=O)(=O)c2ccccc2)c1)S(C)(=O)=O | inconclusive: 35.5 µM [inhibitor, single point] | –
CC(C)(C)Cc1nnc(NS(=O)(=O)c2ccc([N+](=O)[O-])cc2)s1 | inconclusive: 1.26 µM [inhibitor, single point] | –

Complete entries from above. Values in the order: Potency | activity change, negative = inhibition
Cn1c(=O)oc2cc(S(=O)(=O)NCCC(=O)NCc3ccc(F)cc3)ccc21 in the list: inactive | –
Cc1cc(Cl)c2oc(C(=O)NCCC3CCCCO3)c(C)c2c1 (stereo not given) in the list: inconclusive: 35.5 µM [inhibitor, single point] | –
